Values quoted from earlier work, collected in paper PMC8762671 (Chemical research in toxicology, 2021).
Where two headings read alike, the source gives them in different places.

Test system: human iPSC-derived cardiomyocytes
Conditions: ref [36], cited from earlier work

Structure (SMILES): CC(C)NCC(O)COc1cccc2ccccc12 (centres unmarked) [propranolol]
- potency (EC50 in BPM) compared to the standard donor 1434 (donor 1083): more potent
- potency (EC50 in BPM) compared to the standard donor 1434 (donor 1392): less potent
